# Results published in PubChem BioAssay AID504467 (National Center for Advancing Translational Sciences (NCATS), 2011).
# The whole screen tested about 330,000 compounds, of which about 7,700 (2.3%) were called active. The inconclusive results got no clear call from the source; some entries with a clear call stand among them for comparison. Calls follow the shape of the dose curve; as a rule, active = well fitted inhibition curve with a large enough effect; inconclusive = small, poorly fitted or top-dose-only effect, or effect the other way; inactive = flat fitted curve, though single readings scatter. A potency beside an inconclusive call is a rough fit, not a confirmed value.
# Test: qHTS screen for small molecules that inhibit ELG1-dependent DNA repair in human embryonic kidney (HEK293T) cells expressing luciferase-tagged ELG1; also: nearly all actives have a fitted effect of over 55% in size
# Details: HEK293T ELG1-luciferase reporter, luminescence, 16 h, DNA damage induced by 5-fluorouridine; activity change, negative = inhibition: at 46.1 µM (top of the series)
# Procedure, shortened: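 Cells (2,000 per well) received 5-fluorouridine plus test compound or DMSO and were incubated 16 hr at 37 °C, 5% CO2. Luciferase activity was read by luminescence 30 min after ONE-Glo addition; signal suppression marked inhibition of damage-induced ELG1 function.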
# % is scaled to controls: 0 for no effect and ±100 for the full control effect; potency is read from the fitted curve at half-maximal effect.
SMILES,Potency,"activity change, negative = inhibition"
Cn1c2ccccc2c(=O)c2c(=O)n(-c3ccccc3)c(C3CCCCC3)nc21,"inconclusive: 23.1 µM [inhibitor, single point]",
O=C1CC(c2ccc(F)cc2)Cc2nc(N3CCN(c4ccccc4)CC3)ncc21 (centres undefined),"inconclusive: 25.9 µM [inhibitor, single point]",
CCCCCCC(C)n1cc(C(C)=O)c(=O)[nH]c1=O (centres undefined),,inconclusive: 38.7% [activator]
CCOC(=O)C1=C(C)NC(C)=C(C(=O)OCC)C1c1ccc(O)cc1,inactive,
COc1cc(OC)cc(C(C(=O)NCc2ccccc2)N(Cc2ccco2)C(=O)c2ccno2)c1 (centres undefined),"inconclusive: 16.4 µM [inhibitor, partial curve]",
COc1ccccc1/C=N/N1CCN(Cc2ccccc2Cl)CC1,"inconclusive: 2.82 µM [activator, single point]",
O=C(O)/C=C/c1ccccc1Oc1ccc(Cl)cc1Cl,inactive,
CCCn1nnc(NC(=O)c2ccc(Br)o2)n1,"inconclusive: 23.1 µM [activator, partial curve]",
CC(C)(C)OC(=O)C[C@@H]1C/C=C\C[C@H](CC(=O)N[C@H](CO)Cc2ccccc2)C(=O)N[C@@H](Cc2ccccc2)COC1=O,"inconclusive: 8.2 µM [inhibitor, partial curve]",
CC1CCN(c2nc3c(c(=O)n(C)c(=O)n3C)n2Cc2ccccc2)CC1,inactive,
O=C(Cn1cnc2c(nnn2Cc2ccc(Cl)cc2)c1=O)N1CCCc2ccccc21,inactive,
CCOC(=O)c1c(NC(=O)/C=C\C(=O)O)sc(C)c1-c1ccccc1,inactive,
COc1cccc(-c2nc3ccc(C(=O)N4CCCC(O)C4)cc3o2)c1 (centres undefined),"inconclusive: 5.8 µM [activator, partial curve]",
O=C(OCn1ncc(Cl)c(Cl)c1=O)c1ccccc1Cl,"inconclusive: 11.2 µM [inhibitor, partial curve, poor fit]",
COc1ccccc1Nc1nc(NCc2ccco2)c2ccccc2n1,active: 20.6 µM,
COCCNCCCOc1ccc(C(C)(C)c2ccccc2)cc1,inactive,
CC(C)C[C@@H](CNC(=O)OC(C)(C)C)NC(=O)c1nc[nH]c1C(=O)N[C@@H](CC(C)C)C(=O)CNC[C@H](CC(C)C)NC(=O)c1nc[nH]c1C(=O)N[C@@H](Cc1c[nH]c2ccccc12)C(=O)OC(C)(C)C,inactive,
COc1cc(C(=O)NCC(=O)N/N=C/c2c(C)[nH]c3ccccc23)cc(OC)c1OC,"inconclusive: 20.6 µM [inhibitor, partial curve]",
CCOC(=O)/C(C#N)=N/Nc1c(C)n(C)n(-c2ccccc2)c1=O,"inconclusive: 29.1 µM [inhibitor, single point]",
CCOc1cc(N2CCOCC2)c(OCC)cc1NC(C)C(=O)N1CCC(C)CC1 (centres undefined),active: 9.2 µM,
COc1ccc(OC)c(-c2nn(-c3ccccc3)cc2C(=O)N2CCc3ccccc3C2)c1,"inconclusive: 18.3 µM [inhibitor, partial curve, poor fit]",
Cc1ccc(C)c(CSC2=NCCN2C(=O)Cc2ccc([N+](=O)[O-])cc2)c1,"inconclusive: 29.1 µM [inhibitor, single point]",

SMILES,Potency,"activity change, negative = inhibition"
CCC(=O)n1nc(-c2ccc(Cl)cc2)nc1SC,"inconclusive: 20.6 µM [activator, partial curve]",
CCOC(=O)c1cnc2c(-c3ccccc3)cnn2c1N,"inconclusive: 3.66 µM [activator, partial curve]",
Cc1ccc(NC(=O)c2cccc(NC(=O)CCC(=O)O)c2)cc1C,inactive,
CNS(=O)(=O)c1ccc(NC(=O)Nc2ccc3c(c2)OCO3)cc1,"inconclusive: 10.3 µM [activator, partial curve]",
CCOCCn1ccc2c(OCC(=O)Nc3cc(OC)ccc3OC)cccc2c1=O,active: 4.11 µM,
CN1CCN(C(=O)c2ccc(OCCOc3ccccc3)cc2)CC1,inactive,
CCCCNC(=S)NNC(=O)c1csc(C)c1,inactive,
COc1ccc(OC)c(S(=O)(=O)N(C)CC(=O)N2CCN(c3ccccc3)CC2)c1,"inconclusive: 20.6 µM [inhibitor, partial curve, poor fit]",
CC(C)(C)n1nc2c(c1NC(=O)c1cc(Cl)ccc1[N+](=O)[O-])CS(=O)(=O)C2,inactive,
CCCn1c(SCC(=O)Nc2cccc(S(=O)(=O)NC3=NCCCCC3)c2)nc2ccccc2c1=O,"inconclusive: 23.1 µM [inhibitor, single point]",
Oc1ccccc1C1=NN(c2ccccc2)C(c2ccccc2)C1 (centres undefined),"inconclusive: 25.9 µM [inhibitor, partial curve, poor fit]",
Cc1ccc(NC(=O)CCC(=O)c2cccs2)c(Br)c1,"inconclusive: 3.26 µM [activator, single point]",
Cc1cccc(-c2nc(CS(=O)CC(=O)NC3CCCC(C)C3C)c(C)o2)c1 (centres undefined),inactive,
O=C(CCl)NCc1cc(-c2ccc(Cl)cc2)no1,"inconclusive: 13 µM [inhibitor, partial curve, poor fit]",
O=C(Nc1ccccc1-c1nnc(SCc2ccccc2Cl)o1)c1ccccc1,inactive,
CN(/N=C/c1cc(Br)cc(Br)c1O)c1cccc(C(F)(F)F)n1,active: 7.3 µM,
CCn1cc(C(=O)NCCCOC(C)C)c2cc(OC)c(OC)cc2c1=O,"inconclusive: 20.6 µM [inhibitor, single point]",
O=C(NC1CC1)c1cccc(NC(=O)c2cnn(-c3ccccc3)n2)c1,active: 11.6 µM,
COc1ccccc1OCCn1cc(/C=N/n2cnnc2)c2ccccc21,"inconclusive: 20.6 µM [inhibitor, partial curve]",
COc1cccc2oc(-c3ccco3)cc(=O)c12,"inconclusive: 23.1 µM [activator, partial curve]",
Cc1ccc(S(=O)(=O)N(CC(=O)N2CCCCCC2)c2ccccc2)cc1,"inconclusive: 29.1 µM [inhibitor, single point]",
COc1ccc(S(=O)(=O)N2CCN(c3ccc4nnc(-c5ccccc5)n4n3)CC2)cc1,"inconclusive: 16.4 µM [inhibitor, partial curve, poor fit]",

# Gathered by group, the entries above containing bromine
SMILES,Potency,"activity change, negative = inhibition"
CCCn1nnc(NC(=O)c2ccc(Br)o2)n1,"inconclusive: 23.1 µM [activator, partial curve]",
Cc1ccc(NC(=O)CCC(=O)c2cccs2)c(Br)c1,"inconclusive: 3.26 µM [activator, single point]",
CN(/N=C/c1cc(Br)cc(Br)c1O)c1cccc(C(F)(F)F)n1,active: 7.3 µM,
